Assay results from PMC6166740.
No constants are given. Whether binding was seen depends on the method and setting. In cells and extracts the contact can be indirect. Some entries that bind do so weakly or less than the wild type. Tags and fused reporters may be left off the sequences shown. Each block holds one binder with its values, some of them ahead of it.

Assays:
[1] = target: T1, FLAG-tagged NEK8 (NIMA-related kinase 8) (UniProt Q86SG6); assay: co-IP; FLAG-tagged and V5-tagged proteins coexpressed in HEK293T cells (calcium phosphate, 24 h); lysis in 1% Triton X-100, 20 mM Tris pH 7.5, 50 mM NaCl, 50 mM NaF, 15 mM Na4P2O7, 0.1 mM EDTA; anti-FLAG M2 agarose beads 2 h; Western blot with anti-V5 and anti-FLAG
T1 sequence: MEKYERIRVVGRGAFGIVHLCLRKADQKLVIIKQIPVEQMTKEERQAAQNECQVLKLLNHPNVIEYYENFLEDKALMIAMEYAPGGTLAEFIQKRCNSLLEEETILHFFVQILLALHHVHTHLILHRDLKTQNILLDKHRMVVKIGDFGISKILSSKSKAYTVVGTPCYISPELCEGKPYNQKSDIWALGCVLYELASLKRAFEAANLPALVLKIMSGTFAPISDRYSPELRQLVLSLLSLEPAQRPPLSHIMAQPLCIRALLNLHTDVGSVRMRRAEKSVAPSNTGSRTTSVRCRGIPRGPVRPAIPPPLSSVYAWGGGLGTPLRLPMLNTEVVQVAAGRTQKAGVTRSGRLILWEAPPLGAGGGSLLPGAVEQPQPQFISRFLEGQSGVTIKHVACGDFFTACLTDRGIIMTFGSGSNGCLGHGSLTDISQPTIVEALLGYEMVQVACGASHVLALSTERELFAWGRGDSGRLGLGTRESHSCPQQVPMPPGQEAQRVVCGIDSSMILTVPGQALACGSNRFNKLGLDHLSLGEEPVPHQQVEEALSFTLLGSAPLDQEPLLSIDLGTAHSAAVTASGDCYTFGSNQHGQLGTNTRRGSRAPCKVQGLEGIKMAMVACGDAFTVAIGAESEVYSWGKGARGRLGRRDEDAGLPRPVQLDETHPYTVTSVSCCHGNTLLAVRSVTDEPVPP

FLAG-tagged NPHP1 = target: T2, FLAG-tagged NPHP1 (UniProt O15259); assay: as above
T2 sequence: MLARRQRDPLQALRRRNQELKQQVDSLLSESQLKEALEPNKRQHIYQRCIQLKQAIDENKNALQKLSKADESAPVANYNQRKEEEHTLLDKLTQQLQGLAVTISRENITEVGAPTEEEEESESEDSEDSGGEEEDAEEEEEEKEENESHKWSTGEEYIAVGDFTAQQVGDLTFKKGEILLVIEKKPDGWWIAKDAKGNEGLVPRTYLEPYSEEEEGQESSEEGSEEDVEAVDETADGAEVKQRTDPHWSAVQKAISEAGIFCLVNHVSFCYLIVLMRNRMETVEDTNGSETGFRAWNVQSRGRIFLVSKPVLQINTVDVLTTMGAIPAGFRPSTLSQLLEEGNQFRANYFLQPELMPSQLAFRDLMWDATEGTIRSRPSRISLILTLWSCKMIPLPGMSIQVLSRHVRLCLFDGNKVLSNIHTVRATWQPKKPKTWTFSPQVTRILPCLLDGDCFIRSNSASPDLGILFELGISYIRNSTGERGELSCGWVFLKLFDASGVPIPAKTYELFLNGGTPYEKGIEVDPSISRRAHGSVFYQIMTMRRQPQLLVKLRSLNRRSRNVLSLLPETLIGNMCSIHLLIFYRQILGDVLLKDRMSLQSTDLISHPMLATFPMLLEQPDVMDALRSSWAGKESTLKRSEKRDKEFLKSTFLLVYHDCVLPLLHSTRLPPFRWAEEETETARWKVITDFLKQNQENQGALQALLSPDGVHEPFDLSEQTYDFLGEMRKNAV

WDR19 = target: T3, WDR19 (UniProt Q8NEZ3); assay: co-IP; Figure S1A, legend not shown; method taken from the paper's only described test of pairs (co-IP from transfected HEK293T cells)
T3 sequence: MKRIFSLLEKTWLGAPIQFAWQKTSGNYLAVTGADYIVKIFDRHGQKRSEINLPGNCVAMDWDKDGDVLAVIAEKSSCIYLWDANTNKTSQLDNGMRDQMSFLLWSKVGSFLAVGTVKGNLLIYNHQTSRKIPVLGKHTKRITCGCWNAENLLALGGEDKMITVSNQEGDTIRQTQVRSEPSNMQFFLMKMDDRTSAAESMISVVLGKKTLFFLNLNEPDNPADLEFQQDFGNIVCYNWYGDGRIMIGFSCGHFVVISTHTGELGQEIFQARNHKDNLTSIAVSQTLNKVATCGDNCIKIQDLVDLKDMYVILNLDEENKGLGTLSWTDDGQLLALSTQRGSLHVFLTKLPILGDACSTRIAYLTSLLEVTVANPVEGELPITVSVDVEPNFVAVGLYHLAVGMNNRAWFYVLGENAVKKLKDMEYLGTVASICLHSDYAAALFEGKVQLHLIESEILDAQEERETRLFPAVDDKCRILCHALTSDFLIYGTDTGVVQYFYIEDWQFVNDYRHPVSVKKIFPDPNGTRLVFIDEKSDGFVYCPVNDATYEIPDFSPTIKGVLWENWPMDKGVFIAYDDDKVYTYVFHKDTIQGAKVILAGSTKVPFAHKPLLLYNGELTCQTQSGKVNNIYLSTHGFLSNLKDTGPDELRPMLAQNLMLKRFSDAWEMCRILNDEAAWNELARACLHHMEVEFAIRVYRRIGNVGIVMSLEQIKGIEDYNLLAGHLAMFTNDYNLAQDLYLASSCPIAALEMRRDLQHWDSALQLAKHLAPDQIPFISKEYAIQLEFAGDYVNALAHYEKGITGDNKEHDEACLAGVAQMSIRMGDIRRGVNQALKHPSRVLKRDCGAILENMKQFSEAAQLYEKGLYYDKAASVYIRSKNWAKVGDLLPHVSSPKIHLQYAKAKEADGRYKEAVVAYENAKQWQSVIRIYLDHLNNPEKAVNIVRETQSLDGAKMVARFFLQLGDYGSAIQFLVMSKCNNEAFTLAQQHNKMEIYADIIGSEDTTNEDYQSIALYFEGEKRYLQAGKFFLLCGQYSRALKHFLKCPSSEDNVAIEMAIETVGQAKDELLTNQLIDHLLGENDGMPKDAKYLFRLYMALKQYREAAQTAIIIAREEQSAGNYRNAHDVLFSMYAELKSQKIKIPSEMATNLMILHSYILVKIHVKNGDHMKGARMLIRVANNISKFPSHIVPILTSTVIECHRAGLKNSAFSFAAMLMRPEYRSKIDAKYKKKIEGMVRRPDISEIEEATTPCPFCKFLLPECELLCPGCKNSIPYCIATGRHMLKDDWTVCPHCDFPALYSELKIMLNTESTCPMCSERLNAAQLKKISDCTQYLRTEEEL

binding [1]: binds
binding (FLAG-tagged NPHP1): binds
B1: V5-tagged NME3 (enzyme, UniProt Q13232 1-169)
chain: MICLVLTIFANLFPAACTGAHERTFLAVKPDGVQRRLVGEIVRRFERKGFKLVALKLVQASEELLREHYAELRERPFYGRLVKYMASGPVVAMVWQGLDVVRTSRALIGATNPADAPPGTIRGDFCIEVGKNLIHGSDSVESARREIALWFRADELLCWEDSAGHWLYE

binding (WDR19): binds
B2: V5-tagged ANKS6 (ankyrin repeat and sterile alpha motif domain-containing 6) (protein, UniProt Q68DC2 1-871)
chain: MGEGGLPPAFQLLLRACDQGDTETARRLLEPGAAEPAERGAEPEAGAEPAGAEVAGPGAAAAGAVGAPVPVDCSDEAGNTALQFAAAGGHEPLVRFLLRRGASVNSRNHYGWSALMQAARFGHVSVAHLLLDHGADVNAQNRLGASVLTVASRGGHLGVVKLLLEAGAFVDHHHPSGEQLGLGGSRDEPLDITALMAAIQHGHEAVVRLLMEWGADPNHAARTVGWSPLMLAALTGRLGVAQQLVEKGANPDHLSVLEKTAFEVALDCKHRDLVDYLDPLTTVRPKTDEEKRRPDIFHALKMGNFQLVKEIADEDPSHVNLVNGDGATPLMLAAVTGQLALVQLLVERHADVDKQDSVHGWTALMQATYHGNKEIVKYLLNQGADVTLRAKNGYTAFDLVMLLNDPDTELVRLLASVCMQVNKDKGRPSHQPPLPHSKVRQPWSIPVLPDDKGGLKSWWNRMSNRFRKLKLMQTLPRGLSSNQPLPFSDEPEPALDSTMRAAPQDKTSRSALPDAAPVTKDNGPGSTRGEKEDTLLTTMLRNGAPLTRLPSDKLKAVIPPFLPPSSFELWSSDRSRTRHNGKADPMKTALPQRASRGHPVGGGGTDTTPVRPVKFPSLPRSPASSANSGNFNHSPHSSGGSSGVGVSRHGGELLNRSGGSIDNVLSQIAAQRKKAAGLLEQKPSHRSSPVGPAPGSSPSELPASPAGGSAPVGKKLETSKRPPSGTSTTSKSTSPTLTPSPSPKGHTAESSVSSSSSHRQSKSSGGSSSGTITDEDELTGILKKLSLEKYQPIFEEQEVDMEAFLTLTDGDLKELGIKTDGSRQQILAAISELNAGKGRERQILQETIHNFHSSFESSASNTRAPGNSPCA
